Measured values reported in patent publication EP4763867A1 (Shanghai Mabgen Biotech Ltd., dated 2026).
No constants are given. Whether binding was seen depends on the method and setting. Binding calls can cover weak binding; strength is not graded here.

Target: Biotinylated cynomolgus monkey PD-1 (AcroBiosystems, PD1-C82E6) (cynomolgus monkey)
Assay: screening of a VHH yeast display library with biotinylated antigens

binding: binds
B1: A17 (VHH)
VHH: EVQVVESGGGLVQPGGSLRLSCVASGLTFSDYSMSWYRQAPGKERELVAIISGSGVIAHYVDSVKGRFTISRDNAKSTVYLQMVSLKPEDRGVYYCRAVSDWDDYWGQGTQVTVSS
notes: also called Variable region of A17
